No constants are given. Whether binding was seen depends on the method and setting. Some results given as binding are weak or reduced against the parent protein; the word gives no strength. Each block holds one substance with its values, some of them ahead of it.
How the values were obtained:
[1] = molecular target: p27Kip1, recombinant, unphosphorylated (human) (UniProt P46527); assay: direct binding in vitro
[2] = molecular target: p27Kip1, recombinant, unphosphorylated (human) (UniProt P46527); assay: in vitro screen of GST-fused SH3 domains for p27 binding
[3] = molecular target: tyrosine kinase Lyn (in cells) (UniProt P07948); assay: complex formation in vivo (unpublished observations of the inventors)

By UniProt entry, the sequences of proteins in these tests, tags left out. Where a name states a change or a piece, a line headed by the entry shows the natural chain unless it says otherwise. Residues count along the entry.
UniProt P46527: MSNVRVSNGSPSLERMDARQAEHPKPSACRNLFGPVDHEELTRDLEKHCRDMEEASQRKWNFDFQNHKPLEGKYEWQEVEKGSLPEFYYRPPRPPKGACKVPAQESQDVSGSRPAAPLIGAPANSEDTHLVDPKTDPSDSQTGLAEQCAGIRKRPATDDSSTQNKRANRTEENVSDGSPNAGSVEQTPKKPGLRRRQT
UniProt P07948: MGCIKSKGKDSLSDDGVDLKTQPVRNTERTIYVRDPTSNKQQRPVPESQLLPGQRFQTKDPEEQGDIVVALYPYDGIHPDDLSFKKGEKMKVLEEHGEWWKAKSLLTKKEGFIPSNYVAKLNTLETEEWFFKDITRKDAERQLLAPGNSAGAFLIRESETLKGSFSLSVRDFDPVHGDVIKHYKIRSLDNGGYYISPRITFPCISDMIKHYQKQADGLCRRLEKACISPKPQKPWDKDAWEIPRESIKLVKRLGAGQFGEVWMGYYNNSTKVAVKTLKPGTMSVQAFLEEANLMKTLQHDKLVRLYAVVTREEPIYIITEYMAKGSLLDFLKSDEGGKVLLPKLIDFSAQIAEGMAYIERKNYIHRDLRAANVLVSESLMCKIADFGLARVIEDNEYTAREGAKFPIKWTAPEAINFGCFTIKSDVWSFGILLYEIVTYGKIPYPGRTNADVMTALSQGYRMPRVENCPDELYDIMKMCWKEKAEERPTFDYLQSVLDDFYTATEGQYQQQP
UniProt P62993, residues 156-217: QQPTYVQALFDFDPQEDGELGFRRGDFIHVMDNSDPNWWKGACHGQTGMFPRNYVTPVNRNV

binding [1]: binds
Substance: C-terminal SH3 domain of Grb2 (from UniProt P62993 156-217)

binding [2]: binds
Substance: SH3 domain of the tyrosine kinase Lyn fused to GST (from UniProt P07948 63-123)

binding [3]: binds
Substance: mutant of p27 lacking all three tyrosines (tyrosines 74, 88 and 89 replaced by phenylalanine) (from UniProt P46527 1-198)
